# Tested on: rat SERT expressed by RBL-2H3 cells
# Test: [3H]5-HT transport assay in RBL-2H3 cells
# Type: cell-based
compound,measurement,value
O=[N+]([O-])c1ccc(-c2nc(-c3ccncc3)c(-c3ccc(F)cc3)[nH]2)cc1 [PD169316],blockade of anisomycin-stimulated 5-HT uptake / SERT activity,blocked anisomycin stimulation of SERT

# — patent US20070122395A1, “Genetic and pharmacological regulation of antidepressant-sensitive biogenic amine transporters through PKG/p38 map kinase” (Vanderbilt University, priority 2005, published 2007)
